Measurements reported in PubChem BioAssay AID743121 (NCATS, 2013)

- Test: 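Knock-downs that sensitise breast cancer cells to camptothecin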 (primary screen)
- Cells: MDA-MB-231 cells, a human breast cancer line
- Knock-down reagent: single siRNA against human genes, 20 nM siRNA (0.8 pmol per well)
- Timing: 120 h (drug added 48 h after transfection, read 72 h later)
- Challenge: camptothecin 20 nM (about EC30) for 72 h; vehicle 0.1% DMSO in parallel plates
- Measurement: 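CellTiter-Glo ATP signal, scaled to control siRNA as percent viability; sensitisation given as log2 of untreated divided by camptothecin-treated viability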
- Reading the numbers: log2 vehicle/camptothecin viability: higher = stronger sensitisation to camptothecin
- Hit rule: 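Each gene scored by redundant siRNA activity (RSA) over its individual siRNA ratios; a gene is called active at p < 0.001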
Shown is an unselected part of about 26,000 reagents. Over the whole deposit, 167 (0.63%) were called active. 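Calls are per gene from RSA p-values that are not deposited; an individual active-marked siRNA can sensitise only weakly.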 The numbers tell different reagents against one gene apart. Not all columns of the deposit are shown.

For KTI12 #1, the values are log2 vehicle/camptothecin viability -0.0348; inactive. KTI12 #2 showed log2 vehicle/camptothecin viability -0.718; inactive. Against KTI12 #3, the values are log2 vehicle/camptothecin viability 0.0231; inactive. PBK #1 showed log2 vehicle/camptothecin viability 0.115; inactive. PBK #2 scored log2 vehicle/camptothecin viability -0.551; inactive. Depletion of PBK #3 gave: log2 vehicle/camptothecin viability -0.0617; inactive.

Knock-down of PBK #4 gave: log2 vehicle/camptothecin viability -0.0651; inactive. For HEY1 #1, the values are log2 vehicle/camptothecin viability -0.103; inactive. Against HEY1 #2 the deposit lists log2 vehicle/camptothecin viability -0.0756; inactive. HEY1 #3 showed log2 vehicle/camptothecin viability 0.0373; inactive. For HEY1 #4 the deposit lists log2 vehicle/camptothecin viability 0.667; inactive. With knock-down of EI24 #1 the results were log2 vehicle/camptothecin viability -0.628; inactive.

Depletion of EI24 #2 came out at: log2 vehicle/camptothecin viability -0.24; inactive. Silencing of EI24 #3 gave: log2 vehicle/camptothecin viability 1.28; inactive. EI24 #4 scored log2 vehicle/camptothecin viability -0.106; inactive. Depletion of RAB27B #1 resulted in: log2 vehicle/camptothecin viability -0.205; inactive. After knock-down of RAB27B #2 the results were log2 vehicle/camptothecin viability -0.408; inactive. With knock-down of RAB27B #3 the results were log2 vehicle/camptothecin viability -0.133; inactive.

For RAB27B #4, the entry reads log2 vehicle/camptothecin viability -0.057; inactive. For PXN #1 the deposit lists log2 vehicle/camptothecin viability 0.24; inactive. Against PXN #2, the values are log2 vehicle/camptothecin viability -0.493; inactive. PXN #3 showed log2 vehicle/camptothecin viability -0.0659; inactive. EPHB4 #1 gave log2 vehicle/camptothecin viability 0.366; inactive. Against EPHB4 #2, the values are log2 vehicle/camptothecin viability -0.348; inactive.

Depletion of EPHB4 #3 resulted in: log2 vehicle/camptothecin viability -0.118; inactive. After knock-down of EPHB4 #4, the record shows log2 vehicle/camptothecin viability 0.0286; inactive. Depletion of STK11IP #1 resulted in: log2 vehicle/camptothecin viability -0.365; inactive. Silencing of STK11IP #2 resulted in: log2 vehicle/camptothecin viability -0.12; inactive. Depletion of STK11IP #3 resulted in: log2 vehicle/camptothecin viability 0.0138; inactive. STK11IP #4 scored log2 vehicle/camptothecin viability -0.0201; inactive.

For TRIP12 #1 the deposit lists log2 vehicle/camptothecin viability 0.254; inactive. After knock-down of TRIP12 #2 the results were log2 vehicle/camptothecin viability -0.273; inactive. TRIP12 #3 gave log2 vehicle/camptothecin viability 0.526; inactive. With knock-down of TRIP12 #4, the screen gave log2 vehicle/camptothecin viability -0.66; inactive. Knock-down of IL17RA #1 gave: log2 vehicle/camptothecin viability -0.0142; inactive. Silencing of IL17RA #2 resulted in: log2 vehicle/camptothecin viability 0.079; inactive.

IL17RA #3 scored log2 vehicle/camptothecin viability -0.516; inactive. After knock-down of IL17RA #4, the screen gave log2 vehicle/camptothecin viability 0.43; inactive.

Entries above whose target name begins with P or p:
PBK #1 — log2 vehicle/camptothecin viability = 0.115; Call = inactive
PBK #2 — log2 vehicle/camptothecin viability = -0.551; Call = inactive
PBK #3 — log2 vehicle/camptothecin viability = -0.0617; Call = inactive
PBK #4 — log2 vehicle/camptothecin viability = -0.0651; Call = inactive
PXN #1 — log2 vehicle/camptothecin viability = 0.24; Call = inactive
PXN #2 — log2 vehicle/camptothecin viability = -0.493; Call = inactive
PXN #3 — log2 vehicle/camptothecin viability = -0.0659; Call = inactive
